Assay results: PubChem BioAssay AID540256 (National Center for Advancing Translational Sciences (NCATS), 2011)
Where “and” joins values, the source holds several entries; their conditions need not be identical. Equal entries are not always repeated. About 3,700 (1.2%) of roughly 300,000 compounds were called active. This list was built around the results that the source calls inconclusive (neither active nor inactive); the mix of calls is not that of the screen. The call rests on the fitted dose curve; tested in HEK293 cells. Where the call is inconclusive, the potency comes from a doubtful curve fit.

Assay: qHTS for Inhibitors of binding or entry into cells for Lassa Virus; further: nearly all actives have a fitted effect of over 50% in size
Conditions: Lassa virus pseudotype entry inhibition, cell reporter; activity change, negative = inhibition: at 37.9 µM (top of the series) unless noted
On the % scale 0 is the no-effect control and ±100 the full control effect; potency means the concentration at half of the fitted maximal effect.

| SMILES | activity change, negative = inhibition | Potency |
| --- | --- | --- |
| O=C1NCC(Nc2ccccc2)C(=O)N1 (stereo unspecified) | inactive: 10.5% |  |
| CCOC(=O)C1(Cc2cccc(OC)c2)CCN(C/C=C/c2ccc(OC)cc2)CC1 |  | inconclusive: 28.2 µM [inhibitor, single point] |
| CC(=O)Nc1ccc(S(=O)(=O)N2CCCC2C(=O)O)cc1 (stereo unspecified) |  | inconclusive: 6.51 µM [activator, single point] |
| COc1ccc(COCC(CC(C)C)N2CCN(C(=O)c3cccc(C(F)(F)F)c3)CCC2=O)cc1 (stereo unspecified) |  | inconclusive: 1.3 µM [inhibitor, full curve, poor fit] |
| O=C(N/N=C/c1cccnc1)c1cc(-c2cccs2)nc2ccccc12 | inactive: -16.7% |  |
| CN(C)CCN(Cc1cccs1)c1ccccn1 |  | inconclusive: 32.6 µM [inhibitor, single point] and inconclusive: 23.1 µM [activator, partial curve] |
| COc1ccccc1Nc1nc(C)nc(N)c1S(=O)(=O)c1ccccc1 | inactive: -17.3% [at 46.1 µM] |  |
| CCN(CC)S(=O)(=O)c1ccc2c(c1)nc(CN(C)C(=O)Nc1ccc(C)c(Cl)c1)n2C | inactive: 9.96% [at 46.1 µM] |  |
| CCCCCCc1cc2cc(C(=O)Nc3cccc(OC)c3)c(=O)oc2cc1O |  | inconclusive: 6.31 µM [inhibitor, single point] |
| COc1ccc2nc(NC(=O)CSc3nc4cccnc4n3C)sc2c1 |  | inconclusive: 35.5 µM [inhibitor, single point] |
| Cc1ccc(C(=O)C(C)OC(=O)c2ccccc2[N+](=O)[O-])cc1 (stereo unspecified) |  | inconclusive: 0.58 µM [activator, full curve, poor fit] |
| COc1ccc(C(=O)NC2CCCc3ccccc32)cc1 (stereo unspecified) | inactive: -7.13% |  |
| Cc1ccc(Nc2ncccc2C(=O)NCc2cccs2)c(C)c1 |  | inconclusive: 1.03 µM [activator, full curve, poor fit] |
| O=C(Nc1ccc(NC(=O)c2ccco2)cc1)c1cnccn1 | inactive: 6.88% |  |
| N#C/C(=C\c1ccc[nH]1)C(=O)N1CCCCC1 |  | inconclusive: 10 µM [activator, partial curve, poor fit] |
| O=C(Nc1ccc(-n2cccn2)cc1)C1CCN(Cc2ccsc2)CC1 |  | inconclusive: 1.41 µM [activator, full curve, poor fit] |
| Cc1cccc(N2CCN(C(=O)/C=C/c3cccs3)CC2)c1C |  | inconclusive: 18.4 µM [inhibitor, single point] |
| CC(C)(C)OC(=O)NCC12C=CC(O1)C1C(=O)N(Cc3ccccc3)C(=O)C12 (stereo unspecified) |  | inconclusive: 22.4 µM [inhibitor, partial curve, poor fit] |
| O=C(Cc1ccc([N+](=O)[O-])cc1)NCCc1ccc2c(c1)OCO2 | inactive: -1.52% |  |
| CCC(C(=O)OC)n1cnc2c(nnn2-c2ccc(OC)cc2)c1=O (stereo unspecified) | inactive: -0.899% |  |
| Cc1ccc(C(=O)N2CC=C(c3ccccc3)CC2)s1 |  | inconclusive: 22.4 µM [inhibitor, single point] |
| CCc1ccc(C2CC(=O)Nc3c2c(=O)n(C)c2ncnn32)cc1 (stereo unspecified) | inactive: -0.937% [at 46.1 µM] |  |
| COc1cc(NC(=O)CSc2nnnn2C2CCCC2)cc(OC)c1 | inactive: -16.7% [at 46.1 µM] |  |

| SMILES | activity change, negative = inhibition | Potency |
| --- | --- | --- |
| COc1ccc(OC)c(NC(=O)c2nc(S(=O)(=O)Cc3ccc(F)cc3)ncc2Cl)c1 |  | inconclusive: 10 µM [inhibitor, partial curve, poor fit] |
| CC(C)(C)c1cc(S(=O)(=O)CCc2ccncc2)cc(C(C)(C)C)c1F | inactive: 11.8% |  |
| COc1ccc(OCC(=O)Nc2ccc(N3CCN(C(=O)c4ccco4)CC3)cc2)cc1 | inactive: 13.9% |  |
| Cc1ccc(/C=C/C(=O)NCCc2cccc(Cl)c2)o1 | inactive: -0.638% |  |
| O=C(Nc1ccccc1NC(=O)c1c(F)c(F)c(F)c(F)c1F)c1c(F)c(F)c(F)c(F)c1F |  | inconclusive: 23.1 µM [inhibitor, partial curve] |
| COc1cc2nc(Nc3cccc(F)c3)nc(N)c2cc1OC |  | inactive and inconclusive: 15.8 µM [inhibitor, single point] |
| CCc1ccc(Oc2nc([N+](=O)[O-])nn2C)cc1 |  | inconclusive: 1.26 µM [activator, single point] |
| COc1ccc(/C=C/C(=O)Nc2ccccc2C(F)(F)F)cc1 |  | inconclusive: 9.2 µM [activator, partial curve] |
| Cn1c(=O)c2c(nc(N/N=C/c3cccs3)n2Cc2ccccc2)n(C)c1=O |  | inconclusive: 35.5 µM [inhibitor, partial curve, poor fit] |
| c1ccc(SCc2nc(-c3cccnc3)no2)cc1 |  | inconclusive: 5.01 µM [inhibitor, single point] |
| CC(=O)Nc1ccc(NC(=O)c2ccccc2C)cc1 |  | inconclusive: 5.17 µM [activator, single point] |
| CCCCOC(=O)c1ccc(-n2nnc3c(sc4nc(C)cc(C)c43)c2=O)cc1 | inactive: 5.05% [at 46.1 µM] |  |
| COc1ccc(/C=N/NC(=O)c2cccc(Br)c2)cc1Cn1cc(Cl)cn1 |  | inconclusive: 5.8 µM [inhibitor, partial curve] |
| CCOC(=O)C1=C(C)NC(C)=C(C(=O)OCC)C1c1c(F)c(F)c(F)c(F)c1F |  | active: 16.4 µM |
| CC1=C(C#N)C(c2ccccc2)C2=C(N1)c1ccccc1C2=O (stereo unspecified) |  | inconclusive: 2.59 µM [inhibitor, full curve] |
| O=C(CSc1cccc[n+]1[O-])Nc1cc(Cl)ccc1[N+](=O)[O-] | inactive: 20.6% |  |
| COc1ccc(Cl)cc1Nc1nc(-c2cccnc2)cs1 | inactive: 1.42% [at 46.1 µM] |  |
| S=C(Nc1ccc2nsnc2c1)NC1CCCCC1 | inactive: -1.25% |  |
| COc1ccc(OC)c(NC(=O)C23CCC(C)(C(=O)C2)C3(C)C)c1 (stereo unspecified) |  | inconclusive: 35.5 µM [inhibitor, single point] |
| CCCCSc1nnc2c(n1)OC(c1ccc(Br)s1)Nc1ccccc1-2 (stereo unspecified) | inactive: 25% [at 46.1 µM] |  |
| Cc1ccc(NC(=O)CN(Cc2ccccc2)S(=O)(=O)c2ccc3nc(C)sc3c2)c(C)c1 |  | inconclusive: 5.62 µM [inhibitor, single point] |
| COc1cc(S(=O)(=O)N(Cc2ccco2)C2CCCC2)ccc1-n1cnnn1 |  | inconclusive: 9.2 µM [inhibitor, partial curve, poor fit] |
| Cc1cn(CCC(=O)Nc2ccccc2N2CCOCC2)c2ccccc12 |  | inconclusive: 35.5 µM [inhibitor, single point] |

A few values from above.
Cc1ccc(C(=O)C(C)OC(=O)c2ccccc2[N+](=O)[O-])cc1 (stereo unspecified) | Potency: inconclusive: 0.58 µM [activator, full curve, poor fit]
Cn1c(=O)c2c(nc(N/N=C/c3cccs3)n2Cc2ccccc2)n(C)c1=O | Potency: inconclusive: 35.5 µM [inhibitor, partial curve, poor fit]
